Assay results taken from publication PMC7862700.
The list shows a part of the results, in another mix than the full data. At the low end of the ranking the order means little.

Sequences of proteins named here, by UniProt entry; tags and fusion partners are left off. A change or cut given only in a name is not applied to a line headed by its entry.
UniProt P41212: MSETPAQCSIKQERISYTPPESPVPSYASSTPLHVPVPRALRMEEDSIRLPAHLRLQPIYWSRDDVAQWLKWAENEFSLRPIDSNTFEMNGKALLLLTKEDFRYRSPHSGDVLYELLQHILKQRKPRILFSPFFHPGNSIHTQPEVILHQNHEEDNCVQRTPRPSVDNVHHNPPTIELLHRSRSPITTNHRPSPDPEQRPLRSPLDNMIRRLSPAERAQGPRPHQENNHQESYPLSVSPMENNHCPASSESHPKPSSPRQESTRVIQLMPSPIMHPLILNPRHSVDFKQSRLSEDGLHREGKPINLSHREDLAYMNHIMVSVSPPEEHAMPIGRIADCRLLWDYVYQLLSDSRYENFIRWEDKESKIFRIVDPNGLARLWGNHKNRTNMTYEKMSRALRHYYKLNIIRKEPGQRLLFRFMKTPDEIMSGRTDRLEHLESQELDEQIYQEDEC

Molecular target: ETV6 (UniProt P41212)
Assay: DAPPL (digital affinity profiling via proximity ligation, sequencing)
Details: 10 mM Tris-HCl pH 7.5, 50 mM NaCl, 1 mM DTT, 4% glycerol, room temperature, 30 min; GST-TFs on glutathione beads, 16-mer random dsDNA library, 0.1% …; high values mean tight binding; double strand, one strand shown; scale: fold enrichment (6-mer frequency, TF over GST control)

**Q.** How did the binding signal turn out when TTTAGG was run?
**A.** 1.19

**Q.** With CTTTAA as the sequence, how does the binding signal read?
**A.** 1.23

**Q.** For ATCTGA, which binding signal is on record?
**A.** 1.13

**Q.** How did the binding signal turn out when CCTACA was run?
**A.** 1.29

**Q.** Which binding signal does the source give for TCCCTA here?
**A.** 1.17

**Q.** For TTTTGA, which binding signal is on record?
**A.** 1.04

**Q.** For CTGAGC, which binding signal is on record?
**A.** 1.16

**Q.** With AAATTC as the sequence, how does the binding signal read?
**A.** 1.31

**Q.** How did the binding signal turn out when TCGCGC was run?
**A.** 0.973

**Q.** TTCTCA was tested. Which binding signal did it give?
**A.** 1.26

**Q.** How did the binding signal turn out when CTTGGT was run?
**A.** 1.44

**Q.** For TCTCGA, which binding signal is on record?
**A.** 1.47

**Q.** For TCCTCT, which binding signal is on record?
**A.** 1.64

**Q.** For AGCAGC, which binding signal is on record?
**A.** 1.04

**Q.** For TGTATC, which binding signal is on record?
**A.** 1.36

**Q.** Which binding signal does the source give for TCGCAC here?
**A.** 0.969

**Q.** CATGCT was tested. Which binding signal did it give?
**A.** 1.28

**Q.** How did the binding signal turn out when TTCTCC was run?
**A.** 1.48

**Q.** GGAAAC was tested. Which binding signal did it give?
**A.** 1.66

**Q.** With TAATAA as the sequence, how does the binding signal read?
**A.** 1.17

**Q.** For TGAACC, which binding signal is on record?
**A.** 1.11

**Q.** Which binding signal does the source give for TCCTCA here?
**A.** 1.54

**Q.** For GTTCAT, which binding signal is on record?
**A.** 1.17

**Q.** Which binding signal does the source give for AACCCA here?
**A.** 1.09

**Q.** With AACATG as the sequence, how does the binding signal read?
**A.** 1.25

**Q.** For TCCCGC, which binding signal is on record?
**A.** 1.5

**Q.** With CCGATT as the sequence, how does the binding signal read?
**A.** 1.52

**Q.** How did the binding signal turn out when TACTCT was run?
**A.** 1.39

**Q.** For TGGTTC, which binding signal is on record?
**A.** 1.32

**Q.** With AAAAAA as the sequence, how does the binding signal read?
**A.** 1.35

**Q.** Which binding signal does the source give for CCGCAC here?
**A.** 1.56

**Q.** ACAAGC was tested. Which binding signal did it give?
**A.** 1.09

**Q.** How did the binding signal turn out when ATGATT was run?
**A.** 1.19

**Q.** For CACTTG, which binding signal is on record?
**A.** 1.31

**Q.** For CCTCTT, which binding signal is on record?
**A.** 1.68

**Q.** For AAACCA, which binding signal is on record?
**A.** 1.21

**Q.** Which binding signal does the source give for TAAGAT here?
**A.** 1.28

**Q.** With CCATTG as the sequence, how does the binding signal read?
**A.** 1.12

**Q.** ACTAAA was tested. Which binding signal did it give?
**A.** 1.28
